PubChem BioAssay AID1259405 – NCATS, 2018

Assay: 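Knock-downs that lift recombinant protein yield in hamster ovary cells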 (primary screen)
Cell system: Chinese hamster CHO-K1 ovary cells with stable secreted eGFP expression
Reagent: single siRNA against mouse genes, 0.8 pmol siRNA per well (2 µl of 400 nM stock)
Duration: 3 days
Detection: 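Percent of the per-plate non-targeting control median for intracellular GFP per well by laser scanning cytometry and for cell viability by ATP luminescence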
Reading the numbers: GFP, % of control: higher = more GFP per well, higher productivity; viability (ATP), % of control: higher = more viable cells (more ATP)
Hit rule: 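a knock-down is called active if GFP reaches 120% or more of non-targeting control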
This is a random part of about 50,000 reagents tested. About 4,000 of all reagents (8%) count as active. 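Mouse siRNA library applied to hamster cells; one well for each siRNA.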 Reagents against one gene are numbered here. No sequences are given here.

| gene | siRNA no. | GFP, % of control | viability (ATP), % of control | Outcome |
| --- | --- | --- | --- | --- |
| Plk1 (GeneID 18817) | 1 | 46.7 | 17.7 | inactive |
| Irak2 (GeneID 108960) | 1 | 51.4 | 52.3 | inactive |
| Ranbp2 (GeneID 19386) | 1 | 70.7 | 101 | inactive |
| Ranbp2 (GeneID 19386) | 2 | 65.3 | 51.8 | inactive |
| Ranbp2 (GeneID 19386) | 3 | 70.5 | 66.7 | inactive |
| Pitx2 (GeneID 18741) | 1 | 65.1 | 54.9 | inactive |
| Pitx2 (GeneID 18741) | 2 | 83.9 | 64.6 | inactive |
| Pitx2 (GeneID 18741) | 3 | 83.1 | 59.3 | inactive |
| Tnfrsf11a (GeneID 21934) | 1 | 113 | 90.3 | inactive |
| Tnfrsf11a (GeneID 21934) | 2 | 56.6 | 58.7 | inactive |
| Tnfrsf11a (GeneID 21934) | 3 | 83.7 | 51.3 | inactive |
| Abcg8 (GeneID 67470) | 1 | 79.8 | 43.1 | inactive |
| Abcg8 (GeneID 67470) | 2 | 89.2 | 62.4 | inactive |
| Abcg8 (GeneID 67470) | 3 | 93.1 | 65.6 | inactive |
| Lsm12 (GeneID 268490) | 1 | 63 | 68 | inactive |
| Lsm12 (GeneID 268490) | 2 | 53 | 39.1 | inactive |
| Lsm12 (GeneID 268490) | 3 | 50.7 | 37 | inactive |
| Pepd (GeneID 18624) | 1 | 62.1 | 99.1 | inactive |
| Pepd (GeneID 18624) | 2 | 103 | 65.4 | inactive |
| Pepd (GeneID 18624) | 3 | 118 | 72.9 | inactive |
| Il12a (GeneID 16159) | 1 | 82.2 | 55.4 | inactive |
| Il12a (GeneID 16159) | 2 | 48.7 | 58.5 | inactive |
| Il12a (GeneID 16159) | 3 | 59.3 | 89.2 | inactive |
| Upf3b (GeneID 68134) | 1 | 61.8 | 60.9 | inactive |
| Upf3b (GeneID 68134) | 2 | 61.7 | 67.3 | inactive |
| Upf3b (GeneID 68134) | 3 | 79.8 | 101 | inactive |
| Or2h1 (GeneID 258470) | 1 | 86.7 | 92.3 | inactive |
| Or2h1 (GeneID 258470) | 2 | 69.6 | 69 | inactive |
| Or2h1 (GeneID 258470) | 3 | 92.6 | 98.7 | inactive |
| Il17rd (GeneID 171463) | 1 | 86 | 94.6 | inactive |
| Il17rd (GeneID 171463) | 2 | 95.7 | 60 | inactive |
| Il17rd (GeneID 171463) | 3 | 92.6 | 121 | inactive |
| Il17rd (GeneID 171463) | 4 | 74.3 | 68.6 | inactive |
| Il17rd (GeneID 171463) | 5 | 99.3 | 88.8 | inactive |
| Il17rd (GeneID 171463) | 6 | 79.2 | 80.4 | inactive |
| Or5d47 (GeneID 117005) | 1 | 62.7 | 54.3 | inactive |
| Or5d47 (GeneID 117005) | 2 | 119 | 91.9 | inactive |
| Or5d47 (GeneID 117005) | 3 | 53 | 84 | inactive |
| Tnks (GeneID 21951) | 1 | 86.1 | 107 | inactive |
| Tnks (GeneID 21951) | 2 | 82 | 68.1 | inactive |
| Tnks (GeneID 21951) | 3 | 88.9 | 76.4 | inactive |
| Tnks (GeneID 21951) | 4 | 93.3 | 117 | inactive |
| Tnks (GeneID 21951) | 5 | 73.9 | 115 | inactive |
| Tnks (GeneID 21951) | 6 | 97.2 | 107 | inactive |
| Rnft2 (GeneID 269695) | 1 | 72.7 | 48 | inactive |
| Rnft2 (GeneID 269695) | 2 | 61 | 63 | inactive |
| Rnft2 (GeneID 269695) | 3 | 47.9 | 46.4 | inactive |
| Gsdme (GeneID 54722) | 1 | 40.7 | 90.1 | inactive |
| Gsdme (GeneID 54722) | 2 | 73.2 | 93.6 | inactive |
| Gsdme (GeneID 54722) | 3 | 25.2 | 35.3 | inactive |
| Pcif1 (GeneID 228866) | 1 | 45.2 | 76.9 | inactive |
| Pcif1 (GeneID 228866) | 2 | 101 | 93.9 | inactive |
| Pcif1 (GeneID 228866) | 3 | 92.3 | 90.8 | inactive |
| C1s1 (GeneID 50908) | 1 | 80.8 | 87.7 | inactive |
| C1s1 (GeneID 50908) | 2 | 72 | 77.8 | inactive |
| Cacul1 (GeneID 78832) | 1 | 27.6 | 37.5 | inactive |
| Cacul1 (GeneID 78832) | 2 | 13 | 48.4 | inactive |
| Cacul1 (GeneID 78832) | 3 | 58.8 | 75.2 | inactive |
| Med27 (GeneID 68975) | 1 | 92.7 | 84.9 | inactive |
| Med27 (GeneID 68975) | 2 | 103 | 67.6 | inactive |
| Med27 (GeneID 68975) | 3 | 104 | 110 | inactive |
| Arfrp1 (GeneID 76688) | 1 | 114 | 93.5 | inactive |
| Arfrp1 (GeneID 76688) | 2 | 85.2 | 97.3 | inactive |
| Arfrp1 (GeneID 76688) | 3 | 94.3 | 111 | inactive |
| Stard6 (GeneID 170461) | 1 | 137 | 93.7 | active |
| Stard6 (GeneID 170461) | 2 | 123 | 101 | active |
| Stard6 (GeneID 170461) | 3 | 89.4 | 93.2 | inactive |
| Rarg (GeneID 19411) | 1 | 119 | 95.7 | inactive |
| Rarg (GeneID 19411) | 2 | 127 | 78.7 | active |
| Rarg (GeneID 19411) | 3 | 41 | 35.7 | inactive |
| Psmd10 (GeneID 53380) | 1 | 71.5 | 61.9 | inactive |
| Psmd10 (GeneID 53380) | 2 | 64.8 | 91.8 | inactive |
| Psmd10 (GeneID 53380) | 3 | 71.9 | 76 | inactive |
| Samd9l (GeneID 209086) | 1 | 15.2 | 36.5 | inactive |
| Samd9l (GeneID 209086) | 2 | 80.5 | 67.1 | inactive |
| Samd9l (GeneID 209086) | 3 | 80.3 | 84.5 | inactive |
| Cdc42 (GeneID 12540) | 1 | 91.1 | 96.5 | inactive |
| Cdc42 (GeneID 12540) | 2 | 4.8 | 5.19 | inactive |
| Cdc42 (GeneID 12540) | 3 | 19.4 | 18.7 | inactive |
| Chrna6 (GeneID 11440) | 1 | 93.7 | 115 | inactive |
| Chrna6 (GeneID 11440) | 2 | 95.3 | 77.3 | inactive |
| Chrna6 (GeneID 11440) | 3 | 84.6 | 63.6 | inactive |
| Vmn1r62 (GeneID 81016) | 1 | 113 | 55.9 | inactive |
| Vmn1r62 (GeneID 81016) | 2 | 104 | 63.6 | inactive |
| Vmn1r62 (GeneID 81016) | 3 | 78.8 | 72.1 | inactive |

Reagents listed so far with an active call, once more:
| gene | siRNA no. | GFP, % of control | viability (ATP), % of control | Outcome |
| --- | --- | --- | --- | --- |
| Stard6 (GeneID 170461) | 1 | 137 | 93.7 | active |
| Stard6 (GeneID 170461) | 2 | 123 | 101 | active |
| Rarg (GeneID 19411) | 2 | 127 | 78.7 | active |
